Test [1] has as its target T1, LexA-KIN (kinase domain of TRPM7, residues 1597-1862, fused to LexA) (not stated (human or mouse cDNA cloned)) (UniProt Q923J1).
T1 sequence: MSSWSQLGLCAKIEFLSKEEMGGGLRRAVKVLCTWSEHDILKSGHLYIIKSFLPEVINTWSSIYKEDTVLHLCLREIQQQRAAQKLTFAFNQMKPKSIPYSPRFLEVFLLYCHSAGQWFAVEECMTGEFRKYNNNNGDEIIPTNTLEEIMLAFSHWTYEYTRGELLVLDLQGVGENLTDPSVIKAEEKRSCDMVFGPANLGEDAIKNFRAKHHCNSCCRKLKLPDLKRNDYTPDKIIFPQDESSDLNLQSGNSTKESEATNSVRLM
The test is described as follows: two-hybrid; directed Y2H beta galactosidase assay; TRPM7 COOH-terminal fragments fused to LexA as bait, Gal4-fused hepatocystin 346-528 as prey.

Test [2] deals with T2, LexA-CC (coiled-coil domain of TRPM7, residues 1120-1288, fused to LexA) (not stated (human or mouse cDNA cloned)) (UniProt Q923J1).
T2 sequence: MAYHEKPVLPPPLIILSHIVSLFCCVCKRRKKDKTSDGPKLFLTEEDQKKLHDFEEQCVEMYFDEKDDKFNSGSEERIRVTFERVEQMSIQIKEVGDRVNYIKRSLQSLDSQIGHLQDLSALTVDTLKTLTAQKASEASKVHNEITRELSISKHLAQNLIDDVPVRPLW
Described as above.

In test [3] the target is T3, LexA-CTERM (COOH-terminus of TRPM7, residues 1120-1862, fused to LexA) (not stated (human or mouse cDNA cloned)) (UniProt Q923J1).
T3 sequence: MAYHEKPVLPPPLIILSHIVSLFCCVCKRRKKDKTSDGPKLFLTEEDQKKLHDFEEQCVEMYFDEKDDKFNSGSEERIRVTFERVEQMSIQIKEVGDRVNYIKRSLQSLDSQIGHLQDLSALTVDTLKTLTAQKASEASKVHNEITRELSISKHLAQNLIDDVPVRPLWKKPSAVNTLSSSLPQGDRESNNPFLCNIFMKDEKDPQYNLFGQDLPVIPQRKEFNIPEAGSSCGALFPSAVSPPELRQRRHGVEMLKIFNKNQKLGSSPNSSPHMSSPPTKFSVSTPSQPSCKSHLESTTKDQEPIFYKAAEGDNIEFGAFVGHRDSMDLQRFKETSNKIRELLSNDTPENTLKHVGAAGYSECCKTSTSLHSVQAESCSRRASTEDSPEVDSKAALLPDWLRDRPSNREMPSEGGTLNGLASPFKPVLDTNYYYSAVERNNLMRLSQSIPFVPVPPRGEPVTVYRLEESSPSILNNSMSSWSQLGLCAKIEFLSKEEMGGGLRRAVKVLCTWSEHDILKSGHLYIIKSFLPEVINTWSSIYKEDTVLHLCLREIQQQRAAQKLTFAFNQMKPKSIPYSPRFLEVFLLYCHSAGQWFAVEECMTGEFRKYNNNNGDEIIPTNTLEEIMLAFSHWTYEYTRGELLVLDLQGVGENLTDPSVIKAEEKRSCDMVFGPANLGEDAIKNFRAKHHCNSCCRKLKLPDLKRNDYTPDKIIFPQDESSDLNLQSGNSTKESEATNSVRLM
The description is as above.

The target of test [4] is T4, LexA-CTERM (K1646R), kinase-inactive mutant of the TRPM7 COOH-terminus (not stated (human or mouse cDNA cloned)) (UniProt Q923J1).
T4 sequence: T3 sequence with K527R
Described as above.

The target of test [5] is T3, LexA-CTERM (COOH-terminus of TRPM7, residues 1120-1862, fused to LexA) (not stated (human or mouse cDNA cloned)). The test is described as follows: two-hybrid; screen of a rat brain prey library (pACT2 AD) with LexA-CTERM as bait; growth on selective media and beta galactosidase assay, then sequencing.

This note sets out measurements from paper PMC4680877.

Where a chain is given by its changes, count along the chain named. No constants are given. Whether binding was seen depends on the method and setting. For some assays here: Binding calls can cover weak binding; strength is not graded here. For some assays here: Sequences can lack the tags named with a protein.

In the case of “Gal4 fused residues 346-528 of hepatocystin (prey) (rat (clone from a rat brain library)) (domain or fragment)”, the binding entry in test [1] is “no binding”; in test [2], “no binding”; in test [3], “binds”; in test [4], “binds”; in test [5] it was “binds”.
